Reference: PubChem BioAssay AID330 (DTP/NCI, 2004)
The list does not hold the whole screen: it gathers tests that were run many times, whatever their T/C, doses with no T/C, and many T/C values between a quarter and a half above the control. Other doses and runs of a compound stand elsewhere. T/C: endpoint of the treated group in % of that of the vehicle group. Some entries give survivors of the animals treated and no T/C: the source files T/C as zero there, which appears to mark a toxic dose or a test without result, not a measured value. Some survivor counts are full or nearly so, which does not show that the dose was tolerated: the source hardly ever lists a survival T/C far under the control, and the zero likely stands for such cases as well. Survivors were counted at the toxicity check, usually on the fifth day, unless a day is given; later deaths do not show. Schedules are NCI's codes, read here as Q, the interval in days (D) or hours (H), X, the number of doses. Some structures stand for samples that the source files as different forms (salt, stereo form or complex); doses refer to the form tested. For survival time, this PubChem deposit counts one and a half times the control or more as active, and values a quarter to a half above the control carry no call in these data; other NCI protocols may use other cut-offs.

Test system: P388 leukemia ip, CD2F1 mice, survival T/C
Assay: NCI In Vivo Anticancer Drug Screen. Data for tumor model P388 Leukemia (intraperitoneal) in CD2F1 (CDF1) mice
Conditions: T/C endpoint: median survival time, higher T/C = longer survival
[1] = dose: 200.0 mg/kg/injection, schedule: Q01DX005 (ip), vehicle: saline

For `CCn1c2ccccc2c2c3c(NCCCN(C)C)cc(C)nc3ccc21`, the survivor count (dose: 45.0 mg/kg/injection, schedule: Q01DX009 (ip), vehicle: saline with Tween-80) was 5 of 6, the survivor count (dose: 90.0 mg/kg/injection, schedule: Q01DX009 (ip), vehicle: saline with Tween-80) was 2 of 6 and the survivor count (dose: 180.0 mg/kg/injection, schedule: Q01DX009 (ip), vehicle: saline with Tween-80) was 0 of 6.
In the case of `COP(=O)(OC)OC=C(Cl)Cl`, the survivor count (dose: 50.0 mg/kg/injection, schedule: Q01DX009 (ip), vehicle: saline with Tween-80) is reported as 2 of 6, the survivor count (dose: 100.0 mg/kg/injection, schedule: Q01DX009 (ip), vehicle: saline with Tween-80) is reported as 0 of 6 and the survivor count (dose: 200.0 mg/kg/injection, schedule: Q01DX009 (ip), vehicle: saline with Tween-80) is reported as 0 of 6.
`CCC1CCCCN1C` (centres undefined) was tested, and the survivor count (dose: 100.0 mg/kg/injection, schedule: Q01DX009 (ip), vehicle: saline) was 1 of 6 and the survivor count [1] was 1 of 6.
With `O=c1oc(-c2ccccc2Br)ns1` the survivor count (dose: 400.0 mg/kg/injection, schedule: Q01DX009 (ip), vehicle: Klucel (hydroxypropylcellulose) (HPC)) was 3 of 6.
In the case of `CN=C(NCCSCc1ccc2ccccc2n1)NCc1ccccc1`, the survivor count (dose: 50.0 mg/kg/injection, schedule: Q01DX005 (ip), vehicle: saline) is reported as 3 of 5, the survivor count (dose: 100.0 mg/kg/injection, schedule: Q01DX005 (ip), vehicle: saline) is reported as 0 of 5 and the survivor count [1] is reported as 0 of 5.
For `CCOC(=O)NCCCCC([NH-])C(=O)O.CCOC(=O)NCCCCC([NH-])C(=O)O.[Cu+2]` (centres undefined), the survivor count (dose: 200.0 mg/kg/injection, schedule: Q01DX009 (ip), vehicle: saline) was 2 of 6.
With `O=C1C=CC(=O)C1=Cc1ccc([N+](=O)[O-])cc1` the survivor count (dose: 100.0 mg/kg/injection, schedule: Q04DX002 (ip), vehicle: saline with Tween-80) was 0 of 6.
In the case of `CCC(C)C1NC(=O)C(NC(=O)c2c3nc4c(C(=O)NC5C(=O)NC(C(C)CC)C(=O)N6CCCC6C(=O)N(C)CC(=O)N(C)C(C(C)C)C(=O)OC5C)cc([N+](=O)[O-])c(C)c4oc-3c(C)c(=O)c2N)C(C)OC(=O)C(C(C)C)N(C)C(=O)CN(C)C(=O)C2CCCN2C1=O` (centres undefined), the T/C (dose: 0.1 mg/kg/injection, schedule: Q01DX009 (ip), vehicle: Klucel (hydroxypropylcellulose) (HPC)) is reported as 148 % of control, the T/C (dose: 0.18 mg/kg/injection, schedule: Q01DX009 (ip), vehicle: water) is reported as 139 % of control and the T/C (dose: 0.27 mg/kg/injection, schedule: Q01DX009 (ip), vehicle: water) is reported as 147 % of control. The survivor count (dose: 0.9 mg/kg/injection, schedule: Q01DX009 (ip), vehicle: water) was 6 of 6 and the survivor count (dose: 1.6 mg/kg/injection, schedule: Q01DX009 (ip), vehicle: Klucel (hydroxypropylcellulose) (HPC)) was 6 of 6.
